Measured data: PubChem BioAssay AID504764 (Drosophila RNAi Screening Center, 2011)
Test: 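Genome-wide screen for regulators of Notch-driven gene expression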 (primary screen). Cell system: Drosophila Kc167 cells. Reagents: long dsRNA against Drosophila genes. Duration: about 5 days (4 days dsRNA, then 24 h after transfection). Challenge: transfection of constitutively active membrane-tethered Notch lacking the extracellular domain, read 24 h later. Measurement: 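Firefly luciferase from an E(spl)m3 reporter with active Notch, plus control-promoter and uninduced reporter wells for normalisation; unnormalised counts, duplicate wells a and b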. Direction: induced reporter light, run 1, well a and induced reporter light, run 1, well b: higher = more light from the Notch target reporter with active Notch; control promoter light, run 1, well a and control promoter light, run 1, well b: higher = more light from the viral control promoter (cell number, transfection, viability); uninduced reporter light, run 1, well a: higher = more light from the Notch target reporter without active Notch. Hit rule: 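Wells with low control signal or poorly matching duplicates excluded; duplicates averaged; per source plate, z beyond ±2 for induced/control log2 ratio or beyond ±1.8 for induced/uninduced marks a hit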. Calls: active = modifier hit (raised or lowered Notch signal); inactive = not a hit.
The deposit covers about 22,000 reagents; below is an unselected part of those with a known target gene and a result. In the full data, 403 (1.9%) got an active call. 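Unnormalised raw counts per well; ratio z-scores behind the hit calls and whether each hit raises or lowers signal are not deposited.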 Not given: the amount of reagent.

With knock-down of bora [DRSC10744], the screen gave induced reporter light, run 1, well a = 94800; induced reporter light, run 1, well b = 73315; control promoter light, run 1, well a = 49225; control promoter light, run 1, well b = 48470; uninduced reporter light, run 1, well a = 6065; inactive.
Knock-down of CG34458 [DRSC06925] came out at: induced reporter light, run 1, well a = 92365; induced reporter light, run 1, well b = 77890; control promoter light, run 1, well a = 87305; control promoter light, run 1, well b = 1.28e5; uninduced reporter light, run 1, well a = 6485; inactive.
With knock-down of CG42755 (retired record) [DRSC09105], the screen gave induced reporter light, run 1, well a = 1.87e5; induced reporter light, run 1, well b = 1.87e5; control promoter light, run 1, well a = 1.69e5; control promoter light, run 1, well b = 2.25e5; uninduced reporter light, run 1, well a = 13875; inactive.
After knock-down of CG42755 (retired record) [DRSC09106] the results were induced reporter light, run 1, well a = 1.46e5; induced reporter light, run 1, well b = 1.61e5; control promoter light, run 1, well a = 1.97e5; control promoter light, run 1, well b = 1.40e5; uninduced reporter light, run 1, well a = 11280; inactive.
Against CG42458 [DRSC10335] the deposit lists induced reporter light, run 1, well a = 6520; induced reporter light, run 1, well b = 5035; control promoter light, run 1, well a = 8000; control promoter light, run 1, well b = 3050; uninduced reporter light, run 1, well a = 2295; inactive.
With knock-down of CG42562 [DRSC06453], the screen gave induced reporter light, run 1, well a = 90215; induced reporter light, run 1, well b = 89430; control promoter light, run 1, well a = 1.10e5; control promoter light, run 1, well b = 1.38e5; uninduced reporter light, run 1, well a = 7935; inactive.
After knock-down of Sema2a [DRSC07551], the record shows induced reporter light, run 1, well a = 1.01e5; induced reporter light, run 1, well b = 84955; control promoter light, run 1, well a = 1.45e5; control promoter light, run 1, well b = 1.45e5; uninduced reporter light, run 1, well a = 6215; inactive.
Depletion of CG5478 [DRSC15814] came out at: induced reporter light, run 1, well a = 2.17e5; induced reporter light, run 1, well b = 2.49e5; control promoter light, run 1, well a = 2.10e5; control promoter light, run 1, well b = 2.15e5; uninduced reporter light, run 1, well a = 17875; inactive.
With knock-down of Obp50d [DRSC05483] the results were induced reporter light, run 1, well a = 1.53e5; induced reporter light, run 1, well b = 1.77e5; control promoter light, run 1, well a = 1.97e5; control promoter light, run 1, well b = 2.30e5; uninduced reporter light, run 1, well a = 16960; inactive.
Against Dtg [DRSC15998] the deposit lists induced reporter light, run 1, well a = 1.55e5; induced reporter light, run 1, well b = 1.38e5; control promoter light, run 1, well a = 94910; control promoter light, run 1, well b = 89190; uninduced reporter light, run 1, well a = 8632; inactive.
With knock-down of Gpat4 [DRSC04345], the record shows induced reporter light, run 1, well a = 2.08e5; induced reporter light, run 1, well b = 1.73e5; control promoter light, run 1, well a = 1.56e5; control promoter light, run 1, well b = 1.62e5; uninduced reporter light, run 1, well a = 16060; inactive.
After knock-down of Dmtn [DRSC12513], the record shows induced reporter light, run 1, well a = 1.23e5; induced reporter light, run 1, well b = 97620; control promoter light, run 1, well a = 1.01e5; control promoter light, run 1, well b = 1.05e5; uninduced reporter light, run 1, well a = 8855; inactive.

Records above whose gene name begins with D or d:
Dtg [DRSC15998]: induced reporter light, run 1, well a = 1.55e5; induced reporter light, run 1, well b = 1.38e5; control promoter light, run 1, well a = 94910; control promoter light, run 1, well b = 89190; uninduced reporter light, run 1, well a = 8632; call = inactive
Dmtn [DRSC12513]: induced reporter light, run 1, well a = 1.23e5; induced reporter light, run 1, well b = 97620; control promoter light, run 1, well a = 1.01e5; control promoter light, run 1, well b = 1.05e5; uninduced reporter light, run 1, well a = 8855; call = inactive

Next reagents follow.
Knock-down of CG14402 [DRSC02386] gave: induced reporter light, run 1, well a = 1.01e5; induced reporter light, run 1, well b = 60830; control promoter light, run 1, well a = 64275; control promoter light, run 1, well b = 81645; uninduced reporter light, run 1, well a = 3385; inactive.
Against CG8613 [DRSC07222], the entry reads induced reporter light, run 1, well a = 1.88e5; induced reporter light, run 1, well b = 1.54e5; control promoter light, run 1, well a = 1.96e5; control promoter light, run 1, well b = 1.64e5; uninduced reporter light, run 1, well a = 13550; inactive.
Nep5 [DRSC16004] scored induced reporter light, run 1, well a = 1.90e5; induced reporter light, run 1, well b = 1.88e5; control promoter light, run 1, well a = 2.29e5; control promoter light, run 1, well b = 2.66e5; uninduced reporter light, run 1, well a = 13820; inactive.
After knock-down of PlexA [DRSC17220] the results were induced reporter light, run 1, well a = 1.68e5; induced reporter light, run 1, well b = 1.57e5; control promoter light, run 1, well a = 2.05e5; control promoter light, run 1, well b = 2.20e5; uninduced reporter light, run 1, well a = 10450; inactive.
After knock-down of CG33290 [DRSC11493], the screen gave induced reporter light, run 1, well a = 1.66e5; induced reporter light, run 1, well b = 1.60e5; control promoter light, run 1, well a = 2.33e5; control promoter light, run 1, well b = 1.89e5; uninduced reporter light, run 1, well a = 13640; inactive.
Against Mco3 [DRSC15926] the deposit lists induced reporter light, run 1, well a = 1.49e5; induced reporter light, run 1, well b = 1.87e5; control promoter light, run 1, well a = 2.07e5; control promoter light, run 1, well b = 2.40e5; uninduced reporter light, run 1, well a = 13470; inactive.
CG4789 [DRSC19918] showed induced reporter light, run 1, well a = 25385; induced reporter light, run 1, well b = 26005; control promoter light, run 1, well a = 24265; control promoter light, run 1, well b = 17325; uninduced reporter light, run 1, well a = 2820; inactive.
nac [DRSC16520] gave induced reporter light, run 1, well a = 94105; induced reporter light, run 1, well b = 1.32e5; control promoter light, run 1, well a = 1.55e5; control promoter light, run 1, well b = 1.25e5; uninduced reporter light, run 1, well a = 7875; inactive.
For mld [DRSC13681] the deposit lists induced reporter light, run 1, well a = 93210; induced reporter light, run 1, well b = 88475; control promoter light, run 1, well a = 63795; control promoter light, run 1, well b = 67025; uninduced reporter light, run 1, well a = 10382; inactive.
mld [DRSC14622] scored induced reporter light, run 1, well a = 1.50e5; induced reporter light, run 1, well b = 1.54e5; control promoter light, run 1, well a = 2.58e5; control promoter light, run 1, well b = 2.34e5; uninduced reporter light, run 1, well a = 15390; inactive.
CR15280 [DRSC01953] gave induced reporter light, run 1, well a = 1.38e5; induced reporter light, run 1, well b = 1.42e5; control promoter light, run 1, well a = 1.56e5; control promoter light, run 1, well b = 1.72e5; uninduced reporter light, run 1, well a = 11455; inactive.
Silencing of Bx42 [DRSC17743] gave: induced reporter light, run 1, well a = 38905; induced reporter light, run 1, well b = 36305; control promoter light, run 1, well a = 25945; control promoter light, run 1, well b = 22182; uninduced reporter light, run 1, well a = 2665; inactive.
